Test results published in patent publication US20160207976A1.
No constants are given. Whether binding was seen depends on the method and setting. A result given as binding can be weak or reduced; the word gives no strength.

What was measured:
[1] = target: Glycoprotein VI (GPVI) purified from human platelets (human); assay: affinity chromatography of platelet membrane glycoproteins on immobilised convulxin
[2] = target: Glycoprotein VI (GPVI) purified from human platelets (human); assay: affinity chromatography of platelet membrane glycoproteins on convulxin-Sepharose 4B

B1: convulxin, snake C-type lectin from the Tropical Rattlesnake Crotalus durissus terrificus (protein)
chain 1: GLHCPSDWYYYDQHCYRIFNEEMNWEDAEWFCTKQAKGAHLVSIKSAKEADFVAWMVTQNIEESFSHVSIGLRVQNKEKQCSTKWSDGSSVSYDNLLDLYITKCSLLKKETGFRKWFVASCIGKIPFVCKFPPQC
chain 2: GFCCPSHWSSYDRYCYKVFKQEMTWADAEKFCTQQHTGSHLVSFHSTEEVDFVVKMTHQSLKSTFFWIGANNIWNKCNWQWSDGTKPEYKEWHEEFECLISRTFDNQWLSAPCSDTYSFVCKFEA
[1]
  binding: binds
[2]
  binding: binds
